Reference: PMC11288445
These are yes or no findings as the source states them, for the method shown. A result given as binding can be weak or reduced; the word gives no strength. Tags and fused reporters may be left off the sequences shown. For some assays here: Binding seen in cells or lysates may run through a third protein.

How the values were obtained:
[1] = target: 6xHis-TGMV AL2 (tomato golden mosaic virus AL2 protein, N-terminal six-histidine tag) (tomato golden mosaic virus); assay: far-Western, overlay or dot blot; 6xHis-tagged proteins resolved on 4-20% gels and transferred to nitrocellulose; blots overlayed with 15 μg soluble protein extracts from E. coli expressing GST or GST-TCP24 overnight at 4°C; detected with anti-GST antibody; only the target purified
[2] = target: FLAG-AL2 (TGMV AL2 with N-terminal FLAG, expressed from pTRBO) (tomato golden mosaic virus); assay: co-IP; FLAG-AL2 co-expressed with GST-tagged proteins in N. benthamiana leaves, 48 h; tissue fixed with formaldehyde, chromatin purified and sonicated; IP with anti-FLAG M2 agarose overnight at 4°C, washes up to 500 mM NaCl; blot with anti-GST

Binder	binding [1]	binding [2]
GST-TCP24 (Arabidopsis thaliana TCP24, N-terminal glutathione-S-transferase fusion, from E. coli) (protein, UniProt Q9C758 1-324) MEVDEDIELQKHQEQQSRKLQRFSEDNTGLMRNWNNPSSRIIRVSRASGGKDRHSKVLTSKGLRDRRIRLSVATAIQFYDLQDRLGFDQPSKAVEWLINAASDSITDLPLLNTNFDHLDQNQNQTKSACSSGTSESSLLSLSRTEIRGKARERARERTAKDRDKDLQNAHSSFTQLLTGGFDQQPSNRNWTGGSDCFNPVQLQIPNSSSQEPMNHPFSFVPDYNFGISSSSSAINGGYSSRGTLQSNSQSLFLNNNNNITQRSSISSSSSSSSPMDSQSISFFMATPPPLDHHNHQLPETFDGRLYLYYGEGNRSSDDKAKERR	binds	–
GST-TCP24 (Arabidopsis thaliana TCP24, N-terminal GST fusion, expressed from pTRBO in N. benthamiana) (protein, UniProt Q9C758 1-324) MEVDEDIELQKHQEQQSRKLQRFSEDNTGLMRNWNNPSSRIIRVSRASGGKDRHSKVLTSKGLRDRRIRLSVATAIQFYDLQDRLGFDQPSKAVEWLINAASDSITDLPLLNTNFDHLDQNQNQTKSACSSGTSESSLLSLSRTEIRGKARERARERTAKDRDKDLQNAHSSFTQLLTGGFDQQPSNRNWTGGSDCFNPVQLQIPNSSSQEPMNHPFSFVPDYNFGISSSSSAINGGYSSRGTLQSNSQSLFLNNNNNITQRSSISSSSSSSSPMDSQSISFFMATPPPLDHHNHQLPETFDGRLYLYYGEGNRSSDDKAKERR	–	binds
